Measured values as given in patent publication US20180369219A1, “USING DABIGATRAN TO TREAT PANCREATITIS” (Mayo Foundation for Medical Education and Research, priority 2017, published 2018).
At least one compound was matched to its structure with a doubt left.

Assays:
PRSS1R122H mice [1] = assay: Prevention of caerulein-induced pancreatitis in mouse model of human hereditary pancreatitis (PRSS1R122H); format: in vivo; settings: pretreatment before caerulein
Description: (§1) The secretagogue overstimulation model of experimental pancreatitis with caerulein, is a commonly used AP model (Zhan et al., Gastrointestinal Liver Physiology, 311:G343-55 (2016)). This model was accomplished by repeated intraperitoneal (ip) injections of caerulein (100 μg/kg/hour) once per hour (Huang et al., Gastroenterology, 144:202-10 (2013)).
(§2) A model of human hereditary pancreatitis (HP) was developed by using a bacterial artificial chromosome (BAC, clone RP11-701D14) harboring the full-length human PRSS1 gene containing an intact PRSS1 promoter, all exons and introns, and the 3′ untranslated region for faithful recapitulation of the gene's expression. An R122H point mutation was introduced by two rounds of genetic targeting using Galk-mediated recombineering (PRSS1^R122H) (Warming et al., Nucleic Acids Research, 33:e36 (2005)). This transgene expressed PRSS1^R122H at ˜50% of the endogenous human PRSS1 protein level as detected by Western blot (WB) and real-time RT-PCR. […]
(§3) Pancreas edema, serum amylase, and histology were evaluated as described elsewhere (Gaiser et al., Gut, 60:1379-88 (2011); Huang et al., Gastroenterology, 144:202-10 (2013); and Daniluk et al., J. Clin. Invest., 122:1519-28 (2012)). […]

WT mice = assay: Prevention of caerulein-induced acute pancreatitis in WT mice; format: in vivo, mouse
Description: as §1
Camostat mesilate (Santa Cruz), Dabigatran etexilate mesylate (a prodrug for Dabigatran, TRC Canada), and Ximelagatran (a prodrug for Melagatran, Sigma-Aldrich) were dissolved in 10% β-Cyclodextrin (Sigma-Aldrich). […]
Pancreas edema, serum amylase, and histology were evaluated as described elsewhere (Gaiser et al., Gut, 60:1379-88 (2011); Huang et al., Gastroenterology, 144:202-10 (2013); and Daniluk et al., J. Clin. Invest., 122:1519-28 (2012)).
The effect of Dabigatran on experimental pancreatitis in WT mice was evaluated. Dabigatran and Camostat were administrated by oral gavage two hours before the initiation of AP by six hourly injections of caerulein (FIG. 1A). Twenty-four hours after the first dose of caerulein, the severity of pancreatitis was evaluated.

PRSS1R122H mice [2] = assay: Therapeutic administration after AP induction in PRSS1R122H mice, progression to chronic pancreatitis; format: in vivo, mouse; settings: administered four hours after AP induction by caerulein, treated for additional five days, Dabigatran 200 mg/kg Bid, Camostat 300 mg/kg Bid
Description: as §1, §2, §3

[3] = tested on: human having pancreatitis; assay: Treating a human identified as having pancreatitis (Example 2); format: in vivo; settings: 112 mg dabigatran or 150 mg dabigatran etexilate at least twice a day for one to three weeks
Description: A human identified as having pancreatitis is administered 112 mg of dabigatran or 150 mg of dabigatran etexilate at least twice a day for one to three weeks.

CCOC(=O)CN[C@@H](C(=O)N1CC[C@H]1C(=O)NCc1ccc(/C(N)=N\O)cc1)C1CCCCC1 [Ximelagatran]
severity of pancreatitis (PRSS1R122H mice [1]; Ximelagatran 40 mg/kg×2): no effects on reducing the severity of pancreatitis

[H]/N=C(/N)c1ccc(NCc2nc3cc(C(=O)N(CCC(=O)O)c4ccccn4)ccc3n2C)cc1 [Dabigatran]
pancreatic edema (pancreas/body weight ratio) (WT mice; oral gavage two hours before six hourly caerulein injections (100 μg/kg×6), evaluated 24 h after first caerulein dose, Dabigatran 200 mg/kg×2, Camostat 300 mg/kg×2): significantly reduced
serum amylase levels (WT mice; oral gavage two hours before six hourly caerulein injections, evaluated 24 h after first caerulein dose, Dabigatran 200 mg/kg×2, Camostat 300 mg/kg×2): significantly reduced
severity of pancreatitis by histological examination (H&E) (WT mice; pretreatment by oral gavage before caerulein, 24 h after first caerulein dose): dramatically reduced the severity of pancreatitis
serum amylase levels (PRSS1R122H mice [1]; Dabigatran 200 mg/kg×2, Camostat 300 mg/kg×2): decreased serum amylase levels
progression of AP to CP (pancreas/body weight ratio, histology) (PRSS1R122H mice [2]): effectively prevented the progression of AP to CP
severity of the pancreatitis [3]: reduction in the severity of the pancreatitis
